Results deposited as PubChem BioAssay AID1053208 (Peter MacCallum Cancer Centre, 2014).
In all, the deposit lists about 17,000 reagents; this is an unselected part. In the full data, 788 (4.7%) were called active. 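Calls rest on z-score classes alone; an extra cut-off of viability at most 70% of control was not applied to them.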 Entries without a mark were called inactive. Further read-outs or replicates are left out here. Reagent sequences are not shown.

Screen: 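Genes whose silencing cuts survival of bone tumour cells only with doxorubicin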 (primary screen)
Cell system: mouse osteosarcoma cells, early-passage culture from an engineered mouse model of fibroblastic bone tumour
Reagents: siRNA pool against mouse genes, 40 nM
Timing: about 120 h (48 h before drug, then 72 h with drug)
Conditions: doxorubicin 100 nM for 72 h, roughly 30-40% inhibitory dose
Measurement: 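Luminescent ATP signal taken as viability with or without 100 nM doxorubicin for 72 h; mean of two wells set against non-targeting siRNA and turned into robust z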
Direction: viability z-score with doxorubicin: higher = more viable cells under doxorubicin; viability z-score without drug: higher = more viable cells with knock-down alone
Active means: 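Called active if knock-down leaves viability unchanged without drug (z within -2 to 2) but lowers it with doxorubicin (z at or under -2)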

For Cpsf2, what was measured?
combined z-score class: no change with or without drug; viability z-score with doxorubicin: 0.11; viability z-score without drug: -0.17

What did the screen give for Nyap2?
combined z-score class: no change with or without drug; viability z-score with doxorubicin: 1.24; viability z-score without drug: 1.85

What is on record for Ca6?
combined z-score class: no change with or without drug; viability z-score with doxorubicin: -1.35; viability z-score without drug: -0.17

For Nolc1, what does the deposit list?
combined z-score class: low cell count without drug only; viability z-score with doxorubicin: 0.22; viability z-score without drug: -2.53

For Tap2, how do the results read?
combined z-score class: no change with or without drug; viability z-score with doxorubicin: -0.22; viability z-score without drug: 0.17

Which result is listed for Npm3?
combined z-score class: no change with or without drug; viability z-score with doxorubicin: 0.9; viability z-score without drug: -0.84

With Or4a73, how do the results read?
combined z-score class: no change with or without drug; viability z-score with doxorubicin: 1.57; viability z-score without drug: -0.51

With Trpm7, what does the deposit list?
combined z-score class: no change with or without drug; viability z-score with doxorubicin: -0.11; viability z-score without drug: -0.17

With Lrrc41, how do the results read?
combined z-score class: no change with or without drug; viability z-score with doxorubicin: 0; viability z-score without drug: 1.18

What did the screen give for Apbb2?
combined z-score class: no change with or without drug; viability z-score with doxorubicin: 0.22; viability z-score without drug: -0.17

For St6gal2, how do the results read?
combined z-score class: no change with or without drug; viability z-score with doxorubicin: -0.45; viability z-score without drug: 0.84

With Lgr4, what does the deposit list?
combined z-score class: no change with or without drug; viability z-score with doxorubicin: -0.67; viability z-score without drug: -0.17

2 of these entries in another layout:
Gene,combined z-score class,viability z-score with doxorubicin,viability z-score without drug
Ca6,no change with or without drug,-1.35,-0.17
Nolc1,low cell count without drug only,0.22,-2.53
